Source: the supplement of paper PMC10849652
The list shows a part of the results.

By UniProt entry, the sequences of proteins in these tests, tags left out. Where a name states a change or a piece, a line headed by the entry shows the natural chain unless it says otherwise.
UniProt O00159, whole entry, looked up: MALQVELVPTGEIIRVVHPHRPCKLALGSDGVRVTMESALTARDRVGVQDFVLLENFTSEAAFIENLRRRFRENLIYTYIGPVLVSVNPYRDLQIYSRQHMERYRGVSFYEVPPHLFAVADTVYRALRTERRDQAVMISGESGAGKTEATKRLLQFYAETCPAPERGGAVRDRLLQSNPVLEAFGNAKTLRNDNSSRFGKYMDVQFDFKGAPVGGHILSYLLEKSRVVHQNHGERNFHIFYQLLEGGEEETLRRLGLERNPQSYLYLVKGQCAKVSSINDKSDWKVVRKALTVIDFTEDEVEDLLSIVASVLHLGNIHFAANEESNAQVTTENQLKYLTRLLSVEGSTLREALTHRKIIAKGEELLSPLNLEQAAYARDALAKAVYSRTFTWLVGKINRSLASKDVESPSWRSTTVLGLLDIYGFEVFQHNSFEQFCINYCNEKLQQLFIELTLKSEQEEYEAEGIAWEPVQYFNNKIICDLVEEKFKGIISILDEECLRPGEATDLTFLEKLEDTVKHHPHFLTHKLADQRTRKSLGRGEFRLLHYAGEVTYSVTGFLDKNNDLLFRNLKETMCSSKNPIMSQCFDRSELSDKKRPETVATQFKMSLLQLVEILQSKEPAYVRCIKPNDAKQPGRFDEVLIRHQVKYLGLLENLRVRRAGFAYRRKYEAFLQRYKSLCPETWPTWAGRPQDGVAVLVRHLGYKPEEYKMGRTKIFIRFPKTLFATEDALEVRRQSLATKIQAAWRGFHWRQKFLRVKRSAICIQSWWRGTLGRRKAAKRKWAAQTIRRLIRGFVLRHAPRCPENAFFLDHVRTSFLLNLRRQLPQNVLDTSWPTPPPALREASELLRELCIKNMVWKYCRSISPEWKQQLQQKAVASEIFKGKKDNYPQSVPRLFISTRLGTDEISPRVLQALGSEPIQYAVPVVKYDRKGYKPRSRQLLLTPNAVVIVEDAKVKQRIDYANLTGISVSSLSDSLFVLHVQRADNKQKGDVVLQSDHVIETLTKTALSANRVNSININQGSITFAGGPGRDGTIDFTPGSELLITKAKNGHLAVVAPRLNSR
UniProt O94832: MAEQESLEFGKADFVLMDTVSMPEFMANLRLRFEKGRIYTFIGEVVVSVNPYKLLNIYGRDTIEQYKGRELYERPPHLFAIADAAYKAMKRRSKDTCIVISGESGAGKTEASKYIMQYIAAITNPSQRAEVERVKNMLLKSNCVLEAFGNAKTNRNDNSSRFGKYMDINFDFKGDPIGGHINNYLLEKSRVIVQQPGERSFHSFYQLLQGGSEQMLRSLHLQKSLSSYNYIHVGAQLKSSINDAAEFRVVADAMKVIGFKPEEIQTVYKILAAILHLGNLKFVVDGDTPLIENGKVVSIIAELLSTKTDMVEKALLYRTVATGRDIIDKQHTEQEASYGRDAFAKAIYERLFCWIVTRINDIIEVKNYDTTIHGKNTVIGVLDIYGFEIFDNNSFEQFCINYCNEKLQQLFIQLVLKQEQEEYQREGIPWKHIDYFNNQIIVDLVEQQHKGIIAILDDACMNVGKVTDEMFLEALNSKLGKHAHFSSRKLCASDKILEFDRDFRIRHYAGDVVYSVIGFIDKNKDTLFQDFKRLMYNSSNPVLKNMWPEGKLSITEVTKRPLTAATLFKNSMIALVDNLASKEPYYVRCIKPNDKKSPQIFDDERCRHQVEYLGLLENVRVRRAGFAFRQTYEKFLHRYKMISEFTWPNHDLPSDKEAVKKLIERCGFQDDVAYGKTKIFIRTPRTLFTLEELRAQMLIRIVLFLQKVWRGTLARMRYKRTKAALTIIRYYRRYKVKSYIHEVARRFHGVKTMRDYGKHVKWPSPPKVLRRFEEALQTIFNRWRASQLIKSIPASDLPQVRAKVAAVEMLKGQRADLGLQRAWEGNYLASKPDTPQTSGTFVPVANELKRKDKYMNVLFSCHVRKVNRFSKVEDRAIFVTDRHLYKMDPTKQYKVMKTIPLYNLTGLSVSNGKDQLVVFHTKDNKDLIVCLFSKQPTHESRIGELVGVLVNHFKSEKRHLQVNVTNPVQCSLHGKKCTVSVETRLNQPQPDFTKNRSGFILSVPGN
UniProt P26038, whole entry, looked up: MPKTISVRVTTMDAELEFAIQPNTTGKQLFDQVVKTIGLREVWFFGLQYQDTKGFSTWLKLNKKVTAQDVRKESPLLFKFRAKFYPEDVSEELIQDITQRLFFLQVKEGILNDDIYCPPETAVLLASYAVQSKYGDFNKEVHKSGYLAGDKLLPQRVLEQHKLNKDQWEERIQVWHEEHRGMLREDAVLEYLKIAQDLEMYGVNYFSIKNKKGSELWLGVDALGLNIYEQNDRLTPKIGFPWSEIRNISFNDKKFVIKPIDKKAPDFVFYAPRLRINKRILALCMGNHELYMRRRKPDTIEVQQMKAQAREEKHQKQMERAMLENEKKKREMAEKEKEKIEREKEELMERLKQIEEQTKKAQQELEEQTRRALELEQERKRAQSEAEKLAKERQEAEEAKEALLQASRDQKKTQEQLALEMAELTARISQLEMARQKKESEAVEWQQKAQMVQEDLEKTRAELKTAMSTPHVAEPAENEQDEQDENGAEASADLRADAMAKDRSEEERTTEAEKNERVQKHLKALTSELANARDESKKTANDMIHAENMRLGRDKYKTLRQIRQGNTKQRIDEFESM
UniProt Q99836, whole entry, looked up: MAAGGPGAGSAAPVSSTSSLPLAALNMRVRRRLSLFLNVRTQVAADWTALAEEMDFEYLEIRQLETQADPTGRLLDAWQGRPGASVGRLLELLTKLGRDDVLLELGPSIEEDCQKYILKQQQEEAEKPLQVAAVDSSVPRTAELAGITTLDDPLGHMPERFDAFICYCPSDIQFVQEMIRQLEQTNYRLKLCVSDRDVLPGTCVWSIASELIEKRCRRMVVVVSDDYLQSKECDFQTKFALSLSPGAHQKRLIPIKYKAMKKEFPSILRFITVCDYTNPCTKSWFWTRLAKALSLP
UniProt P03928: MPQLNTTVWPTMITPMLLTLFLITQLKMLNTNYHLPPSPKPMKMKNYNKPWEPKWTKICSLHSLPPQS
UniProt Q9NZJ7, whole entry, looked up: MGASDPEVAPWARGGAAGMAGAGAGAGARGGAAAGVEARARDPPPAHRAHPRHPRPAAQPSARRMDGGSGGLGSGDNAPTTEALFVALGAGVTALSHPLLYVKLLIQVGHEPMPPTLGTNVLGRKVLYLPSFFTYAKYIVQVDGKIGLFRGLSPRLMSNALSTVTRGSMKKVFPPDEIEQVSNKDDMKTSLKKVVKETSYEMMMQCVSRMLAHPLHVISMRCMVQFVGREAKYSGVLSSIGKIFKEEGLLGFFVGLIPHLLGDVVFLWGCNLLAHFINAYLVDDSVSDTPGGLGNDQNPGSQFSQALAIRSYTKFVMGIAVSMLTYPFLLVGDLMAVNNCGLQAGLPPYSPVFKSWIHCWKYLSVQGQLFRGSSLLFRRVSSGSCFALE
UniProt Q96E29: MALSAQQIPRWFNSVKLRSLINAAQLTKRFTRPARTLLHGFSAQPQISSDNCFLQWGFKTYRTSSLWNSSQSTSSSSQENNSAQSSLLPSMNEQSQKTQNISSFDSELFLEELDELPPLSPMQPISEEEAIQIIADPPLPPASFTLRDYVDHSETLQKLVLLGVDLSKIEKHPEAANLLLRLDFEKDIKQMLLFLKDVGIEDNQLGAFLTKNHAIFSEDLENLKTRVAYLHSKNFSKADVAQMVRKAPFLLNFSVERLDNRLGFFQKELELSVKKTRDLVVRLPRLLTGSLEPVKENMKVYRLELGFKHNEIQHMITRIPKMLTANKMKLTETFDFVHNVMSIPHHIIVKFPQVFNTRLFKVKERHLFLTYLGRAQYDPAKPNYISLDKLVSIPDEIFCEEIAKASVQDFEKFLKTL
UniProt Q96H55, whole entry, looked up: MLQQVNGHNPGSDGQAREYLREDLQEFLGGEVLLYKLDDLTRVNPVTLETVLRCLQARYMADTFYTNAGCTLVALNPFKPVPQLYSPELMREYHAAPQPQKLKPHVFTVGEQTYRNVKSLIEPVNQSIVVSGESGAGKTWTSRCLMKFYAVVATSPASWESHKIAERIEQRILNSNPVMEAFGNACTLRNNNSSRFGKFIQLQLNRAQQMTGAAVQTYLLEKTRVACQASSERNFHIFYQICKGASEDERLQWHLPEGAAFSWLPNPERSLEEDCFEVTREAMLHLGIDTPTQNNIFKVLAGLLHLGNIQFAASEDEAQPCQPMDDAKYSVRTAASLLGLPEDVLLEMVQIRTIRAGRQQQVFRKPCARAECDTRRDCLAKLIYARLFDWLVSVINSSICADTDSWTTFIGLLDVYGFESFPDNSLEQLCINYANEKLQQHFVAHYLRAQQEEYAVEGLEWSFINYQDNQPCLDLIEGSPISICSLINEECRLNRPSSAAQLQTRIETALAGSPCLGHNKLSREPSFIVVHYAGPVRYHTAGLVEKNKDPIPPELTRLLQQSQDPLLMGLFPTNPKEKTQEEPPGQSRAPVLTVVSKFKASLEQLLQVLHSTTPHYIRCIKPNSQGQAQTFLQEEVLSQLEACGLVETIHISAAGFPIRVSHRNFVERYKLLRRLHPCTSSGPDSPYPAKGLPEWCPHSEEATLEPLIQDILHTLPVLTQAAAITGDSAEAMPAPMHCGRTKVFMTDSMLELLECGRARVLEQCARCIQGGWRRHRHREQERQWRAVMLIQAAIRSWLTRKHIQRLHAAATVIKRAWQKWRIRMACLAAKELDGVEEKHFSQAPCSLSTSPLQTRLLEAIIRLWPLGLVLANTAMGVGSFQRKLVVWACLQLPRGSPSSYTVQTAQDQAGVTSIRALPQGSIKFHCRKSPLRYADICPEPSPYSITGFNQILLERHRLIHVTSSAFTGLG
UniProt P08590, whole entry, looked up: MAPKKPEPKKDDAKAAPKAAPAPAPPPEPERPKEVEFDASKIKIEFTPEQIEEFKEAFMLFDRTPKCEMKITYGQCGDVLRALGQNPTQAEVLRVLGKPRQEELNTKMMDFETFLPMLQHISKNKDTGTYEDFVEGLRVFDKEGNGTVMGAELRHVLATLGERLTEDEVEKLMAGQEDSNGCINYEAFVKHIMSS
UniProt Q2M296: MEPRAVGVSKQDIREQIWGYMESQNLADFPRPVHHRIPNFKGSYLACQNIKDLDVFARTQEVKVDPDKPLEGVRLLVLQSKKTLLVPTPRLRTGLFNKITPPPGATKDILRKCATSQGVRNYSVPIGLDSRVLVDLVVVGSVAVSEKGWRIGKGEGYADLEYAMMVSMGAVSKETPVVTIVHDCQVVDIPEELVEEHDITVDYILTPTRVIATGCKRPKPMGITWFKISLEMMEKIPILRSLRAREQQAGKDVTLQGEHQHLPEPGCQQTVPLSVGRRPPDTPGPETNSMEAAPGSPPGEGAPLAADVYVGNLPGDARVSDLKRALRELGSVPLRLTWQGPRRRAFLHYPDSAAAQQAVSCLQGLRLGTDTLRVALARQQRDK
UniProt Q9H903: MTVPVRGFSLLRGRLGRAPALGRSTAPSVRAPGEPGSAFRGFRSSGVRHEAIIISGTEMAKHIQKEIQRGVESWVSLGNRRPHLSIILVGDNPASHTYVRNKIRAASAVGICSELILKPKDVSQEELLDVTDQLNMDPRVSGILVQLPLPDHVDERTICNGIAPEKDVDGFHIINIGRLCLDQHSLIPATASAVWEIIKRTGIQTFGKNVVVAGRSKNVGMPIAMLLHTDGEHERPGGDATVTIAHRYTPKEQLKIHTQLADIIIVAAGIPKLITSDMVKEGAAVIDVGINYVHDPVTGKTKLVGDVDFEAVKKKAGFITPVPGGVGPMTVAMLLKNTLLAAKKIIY
UniProt Q9Y2Z2: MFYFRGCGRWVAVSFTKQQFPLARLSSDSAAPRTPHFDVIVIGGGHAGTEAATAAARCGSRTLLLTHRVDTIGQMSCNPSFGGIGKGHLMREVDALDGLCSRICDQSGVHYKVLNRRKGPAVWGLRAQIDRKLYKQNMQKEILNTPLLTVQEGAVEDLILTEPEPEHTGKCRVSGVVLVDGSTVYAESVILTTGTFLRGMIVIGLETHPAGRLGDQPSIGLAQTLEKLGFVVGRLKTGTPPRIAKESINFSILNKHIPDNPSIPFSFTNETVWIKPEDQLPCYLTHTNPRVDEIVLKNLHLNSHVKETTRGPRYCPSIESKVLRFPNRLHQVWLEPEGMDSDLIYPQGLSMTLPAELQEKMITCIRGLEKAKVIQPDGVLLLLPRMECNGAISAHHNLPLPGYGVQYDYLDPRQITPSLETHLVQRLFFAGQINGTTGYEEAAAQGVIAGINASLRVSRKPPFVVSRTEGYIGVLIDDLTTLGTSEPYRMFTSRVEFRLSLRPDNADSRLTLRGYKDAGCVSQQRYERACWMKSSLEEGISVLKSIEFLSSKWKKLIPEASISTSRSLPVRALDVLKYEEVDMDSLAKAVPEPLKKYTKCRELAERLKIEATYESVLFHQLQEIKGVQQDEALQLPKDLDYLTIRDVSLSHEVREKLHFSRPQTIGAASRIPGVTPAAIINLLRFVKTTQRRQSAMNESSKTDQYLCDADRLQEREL

Compound: C1=CC=C(C=C1)[C@H](COC2=CC3=C(C=C2)NC(=O)N3)NC(=O)C4=CC=CN(C4=O)CC5=CC(=C(C=C5)F)F
Assay: log2 fold change, soluble protein after heating vs DMSO (PISA); higher = thermal stabilisation; K562 cells, 10 uM, 30 min; active = over 0.2 and 3.5 SD of the protein, either way, in both replicates (recomputed)
Procedure, shortened: (§1)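 Thermal stability values are relative to control samples and come from duplicates. They are expressed as log2 fold changes. For measurement, K562 cells (2×10^6 cells/mL) received 10 μM compound for 30 min, and aliquots were heated for 3 min over 48°C-58°C, pooled, and extracted at 4°C in PBS with 0.5% NP-40. Soluble protein, the supernatant after 21,000xg for 90 min, was quantified by TMTpro 16plex LC-MS/MS with equalised channel sums.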

| Target | log2 fold change |
| --- | --- |
| MTIF3 (UniProt Q9H2K0) | inactive: -0.037 |
| MVB12A (UniProt Q96EY5) | inactive: -0.022 |
| MYO1C (UniProt O00159) | inactive: -0.129 |
| MRPL58 (UniProt Q14197) | inactive: 0.028 |
| MSL1 (UniProt Q68DK7) | inactive: 0.083 |
| MYO1D (UniProt O94832) | inactive: 0.044 |
| MSN (UniProt P26038) | inactive: -0.015 |
| MYD88 isoform 6 (UniProt Q99836) | inactive: 0.275 |
| MYBBP1A isoform 2 (UniProt Q9BQG0) | inactive: -0.036 |
| MT-ATP8 (UniProt P03928) | inactive: -0.08 |
| MTHFD1L (UniProt B7ZM99) | inactive: 0.009 |
| MTURN (UniProt Q8N3F0) | inactive: -0.01 |
| MRPS23 (UniProt Q9Y3D9) | inactive: -0.027 |
| MTCH1 (UniProt Q9NZJ7) | inactive: 0.04 |
| MYO18B isoform 3 (UniProt Q8IUG5) | inactive: -0.005 |
| MTOR (UniProt P42345) | inactive: -0.044 |
| MTERF3 (UniProt Q96E29) | inactive: 0.055 |
| MYO19 (UniProt Q96H55) | inactive: -0.07 |
| MTCH2 (UniProt E9PIE4) | inactive: -0.071 |
| MYH3 (UniProt P11055) | inactive: 0.16 |
| MYL3 (UniProt P08590) | inactive: -0.024 |
| MYO9A isoform 4 (UniProt B2RTY4) | inactive: 0.181 |
| MRPS26 (UniProt Q9BYN8) | inactive: -0.075 |
| MRPL57 (UniProt Q9BQC6) | inactive: 0.05 |
| MUC1, A0A087WWM1 | inactive: 0.096 |

Compound: CC1=C(SC2=C1C(=N[C@H](C3=NN=C(N32)C)CC(=O)N)C4=CC=C(C=C4)Cl)C
Assay: as above
Procedure, shortened: as §1

| Target | log2 fold change |
| --- | --- |
| MTIF3 (UniProt Q9H2K0) | inactive: -0.116 |
| MYO1C (UniProt O00159) | inactive: 0.072 |
| MT-CO3 (UniProt P00414) | inactive: 0.093 |
| MRPL58 (UniProt Q14197) | inactive: -0.148 |
| MYO1D (UniProt O94832) | inactive: -0.063 |
| MSN (UniProt P26038) | inactive: 0.032 |
| MYBBP1A isoform 2 (UniProt Q9BQG0) | inactive: -0.309 |
| MTHFD1L (UniProt B7ZM99) | inactive: 0.166 |
| MRPS23 (UniProt Q9Y3D9) | inactive: 0.007 |
| MTCH1 (UniProt Q9NZJ7) | inactive: 0.001 |
| MTOR (UniProt P42345) | inactive: 0.021 |
| MTHFSD (UniProt Q2M296) | inactive: -0.136 |
| MYO19 (UniProt Q96H55) | inactive: 0.016 |
| MTHFD2L (UniProt Q9H903) | inactive: -0.198 |
| MYH3 (UniProt P11055) | inactive: -0.026 |
| MYL3 (UniProt P08590) | inactive: 0.037 |
| MTERF4 (UniProt Q7Z6M4) | inactive: 0.014 |
| MRPS26 (UniProt Q9BYN8) | inactive: 0.061 |
| MTO1 isoform 6 (UniProt Q9Y2Z2) | inactive: 0.06 |
| MYH6 (UniProt P13533) | inactive: 0.002 |
| MUC1, A0A087WWM1 | inactive: 0.104 |
